Reference: publication PMC5996148
Values joined by “and” are separate entries in the source; they are usually repeats but may differ in a detail not shown here. Equal entries are not always repeated. Some of the results follow. For some assays here: The exact form of the protein is not confirmed.

Experiments:
Assay in all cases: protein microarray (ProtoArray v5.0), streptavidin-Alexa Fluor 647
Settings in all cases: 3'-biotin; 20 mM Tris (pH 7.5), 5 mM MgCl2, 100 mM KCl, 0.1% Tween-20, A/T-rich and random oligonucleotide blockers; temperature not stated; high values mean tight binding
CANX (human) = tested on: CANX (human)
CAP2 (human) = tested on: CAP2 (human)
CAPN1 (human) = tested on: CAPN1 (human)
CAPNS2 (human) = tested on: CAPNS2 (human)
CAPS (human) = tested on: CAPS (human)
CAPZA2 (human) = tested on: CAPZA2 (human)
CARTPT (human) = tested on: CARTPT (human)
CASC2 (human) = tested on: CASC2 (human)
CASP4 (human) = tested on: CASP4 (human)
CAT (human) = tested on: CAT (human)
CBR4 (human) = tested on: CBR4 (human)
CBS (human) = tested on: CBS (human)
CCBL1 (human) = tested on: CCBL1 (human)
CCBL2 (human) = tested on: CCBL2 (human)
CCDC107 (human) = tested on: CCDC107 (human)
CCDC115 = target: T1, CCDC115 (UniProt Q96NT0)
T1 sequence: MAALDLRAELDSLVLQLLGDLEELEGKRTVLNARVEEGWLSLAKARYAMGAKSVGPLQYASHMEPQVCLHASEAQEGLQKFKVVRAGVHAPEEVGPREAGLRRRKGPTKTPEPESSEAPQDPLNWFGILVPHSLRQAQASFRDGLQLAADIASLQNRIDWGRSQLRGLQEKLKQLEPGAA

CCDC12 (human) = tested on: CCDC12 (human)
CCDC126 (human) = tested on: CCDC126 (human)
CCDC14 (human) = tested on: CCDC14 (human)
CCDC21 = target: T2, CCDC21 (UniProt Q6P2H3)
T2 sequence: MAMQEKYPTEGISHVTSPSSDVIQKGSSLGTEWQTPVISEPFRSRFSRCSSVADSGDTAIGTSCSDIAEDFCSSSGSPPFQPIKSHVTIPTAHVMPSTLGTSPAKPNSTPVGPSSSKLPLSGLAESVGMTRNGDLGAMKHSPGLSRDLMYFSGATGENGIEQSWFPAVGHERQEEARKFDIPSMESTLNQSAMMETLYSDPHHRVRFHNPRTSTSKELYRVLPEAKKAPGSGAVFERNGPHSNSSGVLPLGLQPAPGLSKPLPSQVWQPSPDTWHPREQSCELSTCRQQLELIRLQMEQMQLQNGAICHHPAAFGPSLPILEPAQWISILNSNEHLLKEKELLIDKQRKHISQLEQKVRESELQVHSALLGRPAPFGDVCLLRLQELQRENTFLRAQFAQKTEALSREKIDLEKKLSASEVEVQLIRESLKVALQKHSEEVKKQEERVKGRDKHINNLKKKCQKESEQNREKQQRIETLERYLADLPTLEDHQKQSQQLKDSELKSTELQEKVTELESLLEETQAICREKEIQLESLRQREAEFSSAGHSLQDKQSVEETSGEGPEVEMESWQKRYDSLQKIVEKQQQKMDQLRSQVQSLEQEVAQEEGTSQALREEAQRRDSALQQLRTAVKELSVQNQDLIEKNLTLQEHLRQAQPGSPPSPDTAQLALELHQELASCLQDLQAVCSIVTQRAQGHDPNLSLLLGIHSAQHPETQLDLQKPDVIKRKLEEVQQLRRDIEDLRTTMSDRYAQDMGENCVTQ

For “GGGAGGCTGAGGCAGG [G4-1 biotinylated (PQS2)]”, the binding signal (CANX (human)) was -0.313 z-score, the binding signal (CAP2 (human)) was -0.345 z-score and the binding signal (CAPN1 (human)) was -0.307 z-score. For the same sequence, the binding signal (CAPNS2 (human)) was -0.345 z-score, the binding signal (CAPS (human)) was -0.354 z-score and -0.376 z-score and the binding signal (CAPZA2 (human)) was -0.356 z-score. For the same sequence, the binding signal (CARTPT (human)) was -0.26 z-score, the binding signal (CASC2 (human)) was -0.279 z-score and the binding signal (CASP4 (human)) was -0.335 z-score. It also gave a binding signal (CAT (human)) of -0.348 z-score, a binding signal (CBR4 (human)) of -0.34 z-score and a binding signal (CBS (human)) of -0.359 z-score. The binding signal (CCBL1 (human)) was -0.244 z-score, the binding signal (CCBL2 (human)) was -0.296 z-score and the binding signal (CCDC107 (human)) was -0.358 z-score and -0.282 z-score. It also gave a binding signal (CCDC115) of -0.342 z-score, a binding signal (CCDC12 (human)) of -0.294 z-score and a binding signal (CCDC126 (human)) of -0.305 z-score. It also gave a binding signal (CCDC14 (human)) of -0.305 z-score and a binding signal (CCDC21) of -0.287 z-score.
